Library screen at single concentrations

Sequences of proteins named here, by UniProt entry; tags and fusion partners are left off. Residues count along the entry.
UniProt A4I591, 1-473: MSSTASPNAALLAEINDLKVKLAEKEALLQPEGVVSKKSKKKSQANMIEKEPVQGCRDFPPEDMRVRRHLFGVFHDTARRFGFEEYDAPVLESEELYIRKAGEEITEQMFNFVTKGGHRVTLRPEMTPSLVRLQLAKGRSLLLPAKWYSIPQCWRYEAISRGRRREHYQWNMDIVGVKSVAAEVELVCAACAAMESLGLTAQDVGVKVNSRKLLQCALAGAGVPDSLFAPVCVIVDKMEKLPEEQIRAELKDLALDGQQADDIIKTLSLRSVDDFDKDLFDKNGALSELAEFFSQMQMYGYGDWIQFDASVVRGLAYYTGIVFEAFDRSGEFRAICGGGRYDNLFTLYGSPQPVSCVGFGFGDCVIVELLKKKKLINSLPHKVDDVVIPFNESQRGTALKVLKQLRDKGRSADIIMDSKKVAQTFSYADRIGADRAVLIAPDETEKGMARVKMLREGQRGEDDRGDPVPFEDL
UniProt P9WFT3, whole entry: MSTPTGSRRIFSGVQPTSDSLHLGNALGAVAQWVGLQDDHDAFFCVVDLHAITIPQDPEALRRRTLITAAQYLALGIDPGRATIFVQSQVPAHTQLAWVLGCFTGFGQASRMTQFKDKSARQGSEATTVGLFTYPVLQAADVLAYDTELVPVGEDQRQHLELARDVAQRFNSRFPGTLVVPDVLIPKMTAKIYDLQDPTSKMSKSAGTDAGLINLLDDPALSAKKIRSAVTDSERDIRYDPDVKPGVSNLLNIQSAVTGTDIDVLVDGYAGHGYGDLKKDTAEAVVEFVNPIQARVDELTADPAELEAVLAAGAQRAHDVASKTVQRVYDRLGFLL

Data taken from ChEMBL document CHEMBL3988442, “University of Dundee, Small-Polar-MMV Screening Library” (2021).

LiHisRS: 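Enzyme assay of histidyl-tRNA synthetase; the read-out is not stated. Target: Histidine-tRNA ligase, Leishmania infantum (UniProt A4I591). Tested at 30 µM. The record gives no direction; compounds that gave an IC50 in retests scored well above the rest, so higher reads as stronger inhibition. The assay is labelled LdHisRS but filed under L. infantum. Size under these conditions: about 69,000 compounds, about 410 of them at 50% or above in at least one test.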
MtTrpRS: 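Tryptophan-tRNA ligase, Mycobacterium tuberculosis (UniProt P9WFT3). Enzyme assay of tryptophanyl-tRNA synthetase; the read-out is not stated. Concentration: 10 µM. Higher most likely means stronger inhibition; the record gives no direction and few retests gave an IC50. Of about 65,000 compounds tested this way, about 64 (0.098%) reached 50% or more in at least one test.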

Results are given as percent effect. How 0% and 100% were set is not recorded. Most values in the screen are low, and negative values occur. Compounds were drawn at random from those tested, without regard to their results.

{"compound": "Cn1nc(C2CNCCO2)cc1CCOc1cccc(C(F)(F)F)c1", "stereo": "centres undefined", "LiHisRS": 14.18, "MtTrpRS": -7.815}
{"compound": "CC(NC(=O)Nc1ccc(-n2cncn2)cc1)C(=O)NC(C)(C)C", "stereo": "centres undefined", "LiHisRS": 27.16, "MtTrpRS": 3.213}
{"compound": "CCn1nnc2c1CCN(C(=O)c1ccc3c(c1)OCO3)C2COC", "stereo": "centres undefined", "LiHisRS": 10, "MtTrpRS": 2.562}
{"compound": "CNS(=O)(=O)Cc1ccccc1CNc1ccc(C#N)cn1", "LiHisRS": 4.762, "MtTrpRS": -3.303}
{"compound": "CN(C)C(=O)NCc1ncn2c1CN(S(C)(=O)=O)CCC2", "LiHisRS": 14.53, "MtTrpRS": 1.622}
{"compound": "CN1CCOC(CNCc2nc(-c3ccco3)no2)C1", "stereo": "centres undefined", "LiHisRS": 5.714, "MtTrpRS": 2.687}
{"compound": "COc1ccc(C(CC(=O)O)NC(=O)CCc2cccs2)cc1OC", "stereo": "centres undefined", "LiHisRS": 12.39, "MtTrpRS": -1.147}
{"compound": "Cn1nnc2cc(C(=O)NS(=O)(=O)c3cccc(C#N)c3)ccc21", "LiHisRS": 14.04, "MtTrpRS": -3.753}
{"compound": "CCn1cc(-c2cc(C(F)F)nc3sc(C(N)=O)c(N)c23)c(C)n1", "LiHisRS": 20.99, "MtTrpRS": 2.801}
{"compound": "CCCC(=O)NCc1cc(Br)c(OC)c(OC)c1", "LiHisRS": 20.39, "MtTrpRS": 2.487}
{"compound": "NC(=O)COc1ccc(C(=O)NCCc2ccco2)cc1", "LiHisRS": 20.55, "MtTrpRS": -1.852}
{"compound": "Fc1ccc(CNCCn2cccn2)c(Cl)c1", "LiHisRS": 8.85, "MtTrpRS": -2.581}
{"compound": "COc1cccc(-c2noc(-c3ccc(NCCCO)nc3)n2)c1OC", "LiHisRS": 12.5, "MtTrpRS": -5.416}
{"compound": "Cc1cc(N)nc(SC2CCN(c3ccccc3F)C2=O)n1", "stereo": "centres undefined", "LiHisRS": 29.41, "MtTrpRS": 8.821}
{"compound": "Cn1c(C2CC2)nc2c1CCN(CC(=O)Nc1nncs1)C2", "LiHisRS": 2.74, "MtTrpRS": -1.839}
{"compound": "CCCC(=O)N1CCC2(CC1)CN(Cc1cccc(C)n1)C(=O)CO2", "LiHisRS": 11.11, "MtTrpRS": -5.717}
{"compound": "O=C(NCC(F)(F)C(F)F)c1cccnc1", "LiHisRS": 0, "MtTrpRS": -2.351}
{"compound": "c1ccc(COCCN2CCc3[nH]cnc3C2c2ccoc2)cc1", "stereo": "centres undefined", "LiHisRS": -4.444, "MtTrpRS": 0.9877}
{"compound": "CCNC(=O)Cc1n[nH]c(-c2cncc(Br)c2)n1", "LiHisRS": 1.77, "MtTrpRS": 0.5735}
{"compound": "O=C(CCc1cc2n(n1)CCCN(CCc1ccccc1)C2)NC1CC1", "LiHisRS": 13.48, "MtTrpRS": 4.696}
{"compound": "O=C(CCCc1ccccn1)N1CCC(Nc2cccnn2)CC1", "LiHisRS": 8.333, "MtTrpRS": -8.505}
{"compound": "Nc1nccnc1C1CN(Cc2ccc(OCC(=O)O)cc2)CCO1", "stereo": "centres undefined", "LiHisRS": 5.674, "MtTrpRS": 8.821}
{"compound": "CCc1c(C)nc(SCc2ccccn2)[nH]c1=O", "LiHisRS": 19.57, "MtTrpRS": 6.768}
{"compound": "O=C(C1CC=CC1)N1CCc2ncnc(-c3ccncc3)c2CC1", "LiHisRS": 25, "MtTrpRS": 4.368}
{"compound": "Cc1nc(CN2CCCC(N(C)CCc3ccncc3)C2)no1", "stereo": "centres undefined", "LiHisRS": 15.38, "MtTrpRS": -2.235}
{"compound": "c1ccc(-c2nnc(CN3C[C@@H]4CC[C@H](C3)N(CC3CCC3)C4)o2)cc1", "LiHisRS": 21.28, "MtTrpRS": -0.8249}
{"compound": "Cn1ccc(C(=O)NCc2ccc(N3CCCC3)nc2)cc1=O", "LiHisRS": 12.16, "MtTrpRS": -2.28}
{"compound": "COc1cc(C(=O)N2CCC(O)(CN3CCOCC3)C(C)(C)C2)ccn1", "stereo": "centres undefined", "LiHisRS": 11.43, "MtTrpRS": 0.3882}
{"compound": "Cn1ccnc1C(=O)N1CCC2(CCN2Cc2ccc(F)cc2)C1", "stereo": "centres undefined", "LiHisRS": -1.98}

Once more, the final 3:

* Cn1ccc(C(=O)NCc2ccc(N3CCCC3)nc2)cc1=O : LiHisRS: 12.16%; MtTrpRS: -2.28%
* COc1cc(C(=O)N2CCC(O)(CN3CCOCC3)C(C)(C)C2)ccn1 (centres undefined) : LiHisRS: 11.43%; MtTrpRS: 0.3882%
* Cn1ccnc1C(=O)N1CCC2(CCN2Cc2ccc(F)cc2)C1 (centres undefined) : LiHisRS: -1.98%